Experimental data reported in publication PMC5396162 (Advanced Science, 2017).
HELM strings list residues between dots; [ac] is acetyl, [am] amide, other brackets name non-standard units.

Experiment: peptide made by a vendor
Conditions: whole synthesis, analytical RP-HPLC

PEPTIDE1{H.A.V.R.N.G.R.R.G.D.G.G.A.V.P.I.A.Q.K}$$$$V2.0
final HPLC purity: ≥95% | final purity (method not given): 99.5%
